# Experimental data from the supplement of paper PMC8728848.
# The other results are listed elsewhere or left out.
# B1: PX9961W-pdi-543-27-543 (Parabacteroides distasonis) (protein)
# chain: EGNATTTSYFLNDQQAIDAIDGLYERFHQEGCYGRELFWEQGAACDIVWGRTRGYNSLATLAYTGDESPLRDVFSRMYSTMSRANWIIQELVKKEKGTTLTAVEKRSLGEAYFSRGWAHYLIAYRYGTDKQGVPFVRYEDFPDDYDNSIPPQQATVMDNYKLIIEDMDKAIAYLPIFESYDADNRGRAHQAAAVAFKAKTYAYWATWDATQWNNVIEMVNQLENNYNRDLAPTFAELFSSDLKDYWNAEYLWTIPSIGGALPGGTEFPGIILENKGWGKYNGWGQMKPSYDIYEEMAKDGKGNDRLVRSILEYNQEFPFFGETRKFWSTSDLEAGFMINKYMDAFKYSDPVGEGAVSANGDWPTVRVNFPIIRFAEMLLFRAEAYLMTGQADKATADINRIRLRSNLTPLTGTATMKDLYHERRCELAFEFTDHLFDLKRWNRSSNADIKTLADKELNAHPRIRRYEDRANPESAFTIIGYEDYTNKNAYQAHMMVFPYPSEEITKSNGQLKQNEGY
# What was measured:
# Experiment in all cases: glycan array binding signal (z-score within array); higher = stronger binding
# Conditions in all cases: glycan notation: IUPAC condensed, linker removed
# Fuc(a1-2)Gal = biological target: Fuc(a1-2)Gal
# Procedure, shortened: (§1)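 From the Consortium for Functional Glycomics database, 3228 arrays were curated, keeping only those whose protein sequence was available. Binding is given as a within-array Z-score averaged across arrays sharing a protein sequence and across linkers. Negative Z-scores can be read as non-binding.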
# Fuc(a1-2)Gal(b1-3)GalNAc = biological target: Fuc(a1-2)Gal(b1-3)GalNAc
# Procedure, shortened: as §1
# [1] = biological target: Fuc(a1-2)Gal(b1-3)GalNAc(a1-3)[Fuc(a1-2)]Gal(b1-4)Glc
# Procedure, shortened: as §1
# [2] = biological target: Fuc(a1-2)Gal(b1-3)GalNAc(a1-3)[Fuc(a1-2)]Gal(b1-4)GlcNAc
# Procedure, shortened: as §1
# [3] = biological target: Fuc(a1-2)Gal(b1-3)GalNAc(b1-3)Gal
# Procedure, shortened: as §1
# [4] = biological target: Fuc(a1-2)Gal(b1-3)GalNAc(b1-3)Gal(a1-4)Gal(b1-4)Glc
# Procedure, shortened: as §1
# [5] = biological target: Fuc(a1-2)Gal(b1-3)GalNAc(b1-4)[Neu5Ac(a2-3)]Gal(b1-4)Glc
# Procedure, shortened: as §1
# Fuc(a1-2)Gal(b1-3)GlcNAc = biological target: Fuc(a1-2)Gal(b1-3)GlcNAc
# Procedure, shortened: as §1
# [6] = biological target: Fuc(a1-2)Gal(b1-3)GlcNAc(b1-2)Man(a1-3)[Fuc(a1-2)Gal(b1-3)GlcNAc(b1-2)Man(a1-6)]Man(b1-4)GlcNAc(b1-4)GlcNAc
# Procedure, shortened: as §1
# [7] = biological target: Fuc(a1-2)Gal(b1-3)GlcNAc(b1-2)Man(a1-3)[Fuc(a1-2)Gal(b1-3)GlcNAc(b1-2)Man(a1-6)]Man(b1-4)GlcNAc(b1-4)[Fuc(a1-6)]GlcNAc
# Procedure, shortened: as §1
# [8] = biological target: Fuc(a1-2)Gal(b1-3)GlcNAc(b1-3)Gal(b1-4)Glc
# Procedure, shortened: as §1
# [9] = biological target: Fuc(a1-2)Gal(b1-3)GlcNAc(b1-3)GalNAc
# Procedure, shortened: as §1
# [10] = biological target: Fuc(a1-2)Gal(b1-3)GlcNAc(b1-3)[Fuc(a1-2)Gal(b1-3)GlcNAc(b1-6)]GalNAc
# Procedure, shortened: as §1
# [11] = biological target: Fuc(a1-2)Gal(b1-3)GlcNAc(b1-3)[Gal(b1-4)GlcNAc(b1-6)]Gal(b1-4)Glc
# Procedure, shortened: as §1
# [12] = biological target: Fuc(a1-2)Gal(b1-3)GlcNAc(b1-3)[Neu5Ac(a2-6)Gal(b1-4)GlcNAc(b1-6)]Gal(b1-4)Glc
# Procedure, shortened: as §1
# [13] = biological target: Fuc(a1-2)Gal(b1-3)GlcNAc6S
# Procedure, shortened: as §1
# [14] = biological target: Fuc(a1-2)Gal(b1-3)[Fuc(a1-4)]GlcNAc
# Procedure, shortened: as §1
# [15] = biological target: Fuc(a1-2)Gal(b1-3)[Fuc(a1-4)]GlcNAc(b1-2)Man(a1-3)[Fuc(a1-2)Gal(b1-3)[Fuc(a1-4)]GlcNAc(b1-2)Man(a1-3)]Man(b1-4)GlcNAc(b1-4)GlcNAc
# Procedure, shortened: as §1
# [16] = biological target: Fuc(a1-2)Gal(b1-3)[Fuc(a1-4)]GlcNAc(b1-2)Man(a1-3)[Fuc(a1-2)Gal(b1-3)[Fuc(a1-4)]GlcNAc(b1-2)Man(a1-6)]Man(b1-4)GlcNAc(b1-4)[Fuc(a1-6)]GlcNAc(b1-4)[Fuc(a1-6)]GlcNAc
# Procedure, shortened: as §1
# [17] = biological target: Fuc(a1-2)Gal(b1-3)[Fuc(a1-4)]GlcNAc(b1-3)[Fuc(a1-3)[Gal(b1-4)]GlcNAc(b1-6)]Gal(b1-4)Glc
# Procedure, shortened: as §1
# [18] = biological target: Fuc(a1-2)Gal(b1-3)[Fuc(a1-4)]GlcNAc(b1-3)[Gal(b1-4)GlcNAc(b1-6)]Gal(b1-4)Glc
# Procedure, shortened: as §1
# Fuc(a1-2)Gal(b1-4)Glc = biological target: Fuc(a1-2)Gal(b1-4)Glc
# Procedure, shortened: as §1
# Fuc(a1-2)Gal(b1-4)Glc6S = biological target: Fuc(a1-2)Gal(b1-4)Glc6S
# Procedure, shortened: as §1
# Fuc(a1-2)Gal(b1-4)GlcNAc = biological target: Fuc(a1-2)Gal(b1-4)GlcNAc
# Procedure, shortened: as §1
# [19] = biological target: Fuc(a1-2)Gal(b1-4)GlcNAc(b1-2)Man
# Procedure, shortened: as §1
# [20] = biological target: Fuc(a1-2)Gal(b1-4)GlcNAc(b1-2)Man(a1-3)[Fuc(a1-2)Gal(b1-4)GlcNAc(b1-2)Man(a1-6)]Man(b1-4)GlcNAc(b1-4)GlcNAc
# Procedure, shortened: as §1
# [21] = biological target: Fuc(a1-2)Gal(b1-4)GlcNAc(b1-2)Man(a1-3)[Fuc(a1-2)Gal(b1-4)GlcNAc(b1-2)Man(a1-6)]Man(b1-4)GlcNAc(b1-4)[Fuc(a1-6)]GlcNAc
# Procedure, shortened: as §1
# [22] = biological target: Fuc(a1-2)Gal(b1-4)GlcNAc(b1-2)[Fuc(a1-2)Gal(b1-4)GlcNAc(b1-4)]Man(a1-3)[Fuc(a1-2)Gal(b1-4)GlcNAc(b1-2)Man(a1-6)]Man(b1-4)GlcNAc(b1-4)GlcNAc
# Procedure, shortened: as §1
# [23] = biological target: Fuc(a1-2)Gal(b1-4)GlcNAc(b1-3)Gal(b1-4)GlcNAc
# Procedure, shortened: as §1
# [24] = biological target: Fuc(a1-2)Gal(b1-4)GlcNAc(b1-3)Gal(b1-4)GlcNAc(b1-2)Man(a1-3)[Fuc(a1-2)Gal(b1-4)GlcNAc(b1-3)Gal(b1-4)GlcNAc(b1-2)Man(a1-6)]Man(b1-4)GlcNAc(b1-4)GlcNAc
# Procedure, shortened: as §1
binder,measurement,setting,value
B1,glycan array binding signal (z-score),Fuc(a1-2)Gal,-0.07
same,glycan array binding signal (z-score),Fuc(a1-2)Gal(b1-3)GalNAc,-0.751
same,glycan array binding signal (z-score),[1],-0.004
same,glycan array binding signal (z-score),[2],0.334
same,glycan array binding signal (z-score),[3],0.732
same,glycan array binding signal (z-score),[4],-0.337
same,glycan array binding signal (z-score),[5],-0.392
same,glycan array binding signal (z-score),Fuc(a1-2)Gal(b1-3)GlcNAc,-0.404
same,glycan array binding signal (z-score),[6],1.64
same,glycan array binding signal (z-score),[7],-0.254
same,glycan array binding signal (z-score),[8],-1.01
same,glycan array binding signal (z-score),[9],-0.213
same,glycan array binding signal (z-score),[10],-0.089
same,glycan array binding signal (z-score),[11],1.74
same,glycan array binding signal (z-score),[12],0.178
same,glycan array binding signal (z-score),[13],-0.369
same,glycan array binding signal (z-score),[14],-0.476
same,glycan array binding signal (z-score),[15],0.3
same,glycan array binding signal (z-score),[16],0.172
same,glycan array binding signal (z-score),[17],-0.034
same,glycan array binding signal (z-score),[18],-0.805
same,glycan array binding signal (z-score),Fuc(a1-2)Gal(b1-4)Glc,0.505
same,glycan array binding signal (z-score),Fuc(a1-2)Gal(b1-4)Glc6S,-0.328
same,glycan array binding signal (z-score),Fuc(a1-2)Gal(b1-4)GlcNAc,-0.724
same,glycan array binding signal (z-score),[19],-0.149
same,glycan array binding signal (z-score),[20],0.285
same,glycan array binding signal (z-score),[21],0.061
same,glycan array binding signal (z-score),[22],-0.27
same,glycan array binding signal (z-score),[23],-0.321
same,glycan array binding signal (z-score),[24],0.321

# Rewritten with tabs: entries from further up.
binder	measurement	setting	value
B1	glycan array binding signal (z-score)	Fuc(a1-2)Gal(b1-4)Glc6S	-0.328
same	glycan array binding signal (z-score)	Fuc(a1-2)Gal(b1-4)GlcNAc	-0.724
same	glycan array binding signal (z-score)	[19]	-0.149
same	glycan array binding signal (z-score)	[20]	0.285
same	glycan array binding signal (z-score)	[21]	0.061
same	glycan array binding signal (z-score)	[22]	-0.27
same	glycan array binding signal (z-score)	[23]	-0.321
